Measured values from paper PMC12727705.
Results are given in words; binding and its absence hold for the method and conditions named. In cells and extracts the contact can be indirect. Some results given as binding are weak or reduced against the parent protein; the word gives no strength. Where a sequence is shown, tags or fusion partners need not be part of it.

Sequences of proteins named here, by UniProt entry; tags and fusion partners are left off.
UniProt V6CLN5: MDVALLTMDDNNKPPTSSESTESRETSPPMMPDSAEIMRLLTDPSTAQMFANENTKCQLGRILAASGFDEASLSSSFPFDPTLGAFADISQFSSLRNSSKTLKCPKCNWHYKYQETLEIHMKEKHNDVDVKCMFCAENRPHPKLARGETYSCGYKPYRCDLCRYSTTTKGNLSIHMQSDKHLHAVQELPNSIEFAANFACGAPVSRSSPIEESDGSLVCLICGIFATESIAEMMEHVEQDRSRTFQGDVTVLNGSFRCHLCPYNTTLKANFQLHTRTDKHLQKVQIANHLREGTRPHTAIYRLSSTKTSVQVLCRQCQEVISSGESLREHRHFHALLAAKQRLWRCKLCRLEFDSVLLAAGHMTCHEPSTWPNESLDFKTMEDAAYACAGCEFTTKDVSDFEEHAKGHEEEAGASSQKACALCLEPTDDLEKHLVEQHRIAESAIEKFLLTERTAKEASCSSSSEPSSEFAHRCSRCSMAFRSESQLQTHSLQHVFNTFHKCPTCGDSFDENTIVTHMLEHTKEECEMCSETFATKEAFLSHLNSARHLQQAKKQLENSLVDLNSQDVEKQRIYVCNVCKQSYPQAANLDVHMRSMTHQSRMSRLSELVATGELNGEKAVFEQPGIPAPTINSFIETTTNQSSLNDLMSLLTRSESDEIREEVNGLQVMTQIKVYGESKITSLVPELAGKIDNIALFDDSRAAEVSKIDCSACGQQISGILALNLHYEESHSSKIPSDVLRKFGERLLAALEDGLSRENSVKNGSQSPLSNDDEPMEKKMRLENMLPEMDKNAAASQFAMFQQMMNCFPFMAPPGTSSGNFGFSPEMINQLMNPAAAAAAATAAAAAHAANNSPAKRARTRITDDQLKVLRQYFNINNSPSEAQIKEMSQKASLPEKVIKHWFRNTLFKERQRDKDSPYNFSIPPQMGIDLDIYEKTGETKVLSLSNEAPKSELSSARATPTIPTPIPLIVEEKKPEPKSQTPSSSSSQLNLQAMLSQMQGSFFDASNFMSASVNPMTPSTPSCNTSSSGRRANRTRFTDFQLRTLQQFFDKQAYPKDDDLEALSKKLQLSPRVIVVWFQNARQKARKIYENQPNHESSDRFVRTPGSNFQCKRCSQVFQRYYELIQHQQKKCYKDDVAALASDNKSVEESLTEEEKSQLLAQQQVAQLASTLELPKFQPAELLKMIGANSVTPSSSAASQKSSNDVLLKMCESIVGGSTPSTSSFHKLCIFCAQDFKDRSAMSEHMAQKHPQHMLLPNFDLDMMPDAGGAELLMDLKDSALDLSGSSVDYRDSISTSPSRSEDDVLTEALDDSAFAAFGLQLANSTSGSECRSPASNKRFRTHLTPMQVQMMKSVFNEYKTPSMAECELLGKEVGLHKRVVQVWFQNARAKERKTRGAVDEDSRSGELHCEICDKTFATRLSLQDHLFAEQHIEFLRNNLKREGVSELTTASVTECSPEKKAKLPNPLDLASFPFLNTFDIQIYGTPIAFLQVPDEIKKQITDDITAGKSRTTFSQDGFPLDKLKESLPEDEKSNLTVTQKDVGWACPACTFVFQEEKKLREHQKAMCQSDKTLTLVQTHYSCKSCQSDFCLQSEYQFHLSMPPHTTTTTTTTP
UniProt Q9TW45: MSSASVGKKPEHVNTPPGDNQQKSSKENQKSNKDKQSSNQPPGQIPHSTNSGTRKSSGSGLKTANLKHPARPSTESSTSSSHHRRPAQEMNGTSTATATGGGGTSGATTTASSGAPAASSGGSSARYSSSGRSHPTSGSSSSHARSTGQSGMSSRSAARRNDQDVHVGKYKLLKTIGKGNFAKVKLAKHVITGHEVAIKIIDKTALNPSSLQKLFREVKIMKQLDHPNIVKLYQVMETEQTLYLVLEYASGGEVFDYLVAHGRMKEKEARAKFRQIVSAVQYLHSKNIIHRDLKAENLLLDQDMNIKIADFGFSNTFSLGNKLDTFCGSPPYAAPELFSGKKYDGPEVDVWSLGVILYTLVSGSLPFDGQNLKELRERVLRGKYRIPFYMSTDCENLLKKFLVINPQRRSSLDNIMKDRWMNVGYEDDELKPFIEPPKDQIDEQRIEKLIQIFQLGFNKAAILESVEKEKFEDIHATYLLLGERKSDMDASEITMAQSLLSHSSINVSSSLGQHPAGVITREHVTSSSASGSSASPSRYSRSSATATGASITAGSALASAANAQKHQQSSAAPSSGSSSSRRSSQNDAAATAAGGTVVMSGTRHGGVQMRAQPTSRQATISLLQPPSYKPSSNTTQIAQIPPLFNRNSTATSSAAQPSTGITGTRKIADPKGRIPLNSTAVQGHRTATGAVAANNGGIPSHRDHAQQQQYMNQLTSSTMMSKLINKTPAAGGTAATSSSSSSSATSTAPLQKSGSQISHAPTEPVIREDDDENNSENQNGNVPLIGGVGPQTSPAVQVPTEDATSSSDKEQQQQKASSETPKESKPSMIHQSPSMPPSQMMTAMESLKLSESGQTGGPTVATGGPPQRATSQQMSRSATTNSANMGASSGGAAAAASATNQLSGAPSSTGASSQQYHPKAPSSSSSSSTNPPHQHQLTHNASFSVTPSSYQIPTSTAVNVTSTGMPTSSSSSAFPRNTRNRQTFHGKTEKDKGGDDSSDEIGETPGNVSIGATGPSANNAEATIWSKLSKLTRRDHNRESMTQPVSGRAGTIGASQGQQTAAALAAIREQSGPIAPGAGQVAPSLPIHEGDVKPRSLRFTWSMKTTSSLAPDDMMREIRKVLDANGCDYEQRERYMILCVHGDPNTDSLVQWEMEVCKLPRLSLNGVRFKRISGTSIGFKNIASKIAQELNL

Experiments:
[1] = biological target: ZFH-2::mSc::AID::3xFLAG (C. elegans) (UniProt V6CLN5); assay: co-IP; C. elegans lysate (L4 or young adults) of knock-in strains; anti-FLAG M2 magnetic beads with 10 U/ml benzonase, 1 h at 4 °C; 50 mM HEPES pH 7.4, 100 mM KCl, 0.5% NP40, 1 mM DTT; blot for HA; the ZFH-2 experiment in a daf-2(e1370) background
[2] = biological target: PAR-1::mSc::AID::3xFLAG (C. elegans) (UniProt Q9TW45); assay: as above

binding [1]: binds
binding [2]: binds
B1: DAF-16::mNG::HA (protein, UniProt O16850 1-541)
chain: MQLEQKSSLHCSKCRNFLQKFSQDMQAWNCRELDSPLPSDITLHNLEPARPDSGMSFSTDFDDDFFNLDLHQQERSASFGGVTQYSQQFLREKCSFSPYFHTSLETVDSGRTSLYGSNEQCGQLGGASSNGSTAMLHTPDGSNSHQTSFPSDFRMSESPDDTVSGKKTTTRRNAWGNMSYAELITTAIMASPEKRLTLAQVYEWMVQNVPYFRDKGDSNSSAGWKNSIRHNLSLHSRFMRIQNEGAGKSSWWVINPDAKPGRNPRRTRERSNTIETTTKAQLEKSRRGAKKRIKERALMGSLHSTLNGNSIAGSIQTISHDLYDDDSMQGAFDNVPSSFRPRTQSNLSIPGSSSRVSPAIGSDIYDDLEFPSWVGESVPAIPSDIVDRTDQMRIDATTHIGGVQIKQESKPIKTEPIAPPPSYHELNSVRGSCAQNPLLRNPIVPSTNFKPMPLPGAYGNYQNGGITPINWLSTSNSSPLPGIQSCGIVAAQHTVASSSALPIDLENLTLPDQPLMDTMDVDALIRHELSQAGGQHIHFDL
